PubChem BioAssay AID2685 (National Center for Advancing Translational Sciences (NCATS), 2010)
This is one part of the list. The main result of the screen is listed elsewhere. These columns were measured beside it and carry no call. The list favours compounds with an active or inconclusive main result. Potencies come from curve fits of mixed quality, noted in brackets.

Assay: qHTS Assay for Lipid Storage Modulators in Drosophila S3 Cells;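 on cell number change: cells counted by Cell Tracker Red CMTPX staining in the red channel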
Details: BODIPY lipid droplet fluorescence, 18-24 h; for cell number change: measured here: cell count max response, cells fed with added oleic acid
Procedure, shortened: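 Drosophila S3 cells got compounds at several concentrations plus oleic acid (400 uM solution). Laser-scanning cytometry with 488 nm excitation read lipid droplets at 500-530 nm and cells at 575-640 nm. Percent activity was relative to 20 uM Triacsin C.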

[1] = measured here: cell number channel AC50, cells fed with added oleic acid
[2] = measured here: lipid fluorescence (Fed channel) AC50, cells fed with added oleic acid

Structure (SMILES): CCc1nc(NCCO)c(C#N)c2c1CSC(C)(C)C2
- cell number change: 26.7%

Structure (SMILES): Nc1n[nH]c(N)c1N=Nc1ccc(Cl)cc1Cl
- cell number change: 34.3%
- AC50 [1]: 5.8 µM [rising, partial curve]

Structure (SMILES): OCCC1CN(Cc2ccon2)CCN1Cc1ccccc1 (centres undefined)
- cell number change: 19.7%
- AC50 [2]: 11.6 µM [rising, partial curve]

Structure (SMILES): COc1ccccc1OCC(=O)Nc1ccc(CSc2ccccc2)cc1C
- cell number change: 85.8%
- AC50 [1]: 7.31 µM [rising, partial curve]
- AC50 [2]: 14.6 µM [rising, partial curve]

Structure (SMILES): CCOC(=O)NC(=O)CSc1nc(C)cc(C)c1C#N
- cell number change: 6.64%
- AC50 [2]: 1.84 µM [rising, full curve, poor fit]

Structure (SMILES): O=C(Nc1ccccc1Cl)/C(Cl)=C(\Cl)S(=O)c1ccccc1 (centres undefined)
- AC50 [2]: 4.11 µM [falling, partial curve, poor fit]

Structure (SMILES): NC(=O)c1c(NC(=O)c2ccccc2Cl)sc2c1CCC2
- cell number change: -28.5%
- AC50 [2]: 6.51 µM [rising, single point]

Structure (SMILES): NC(=O)N/N=C/c1cc(Br)ccc1OC(=O)c1ccccc1
- cell number change: 3.29%
- AC50 [2]: 29.1 µM [rising, single point]

Structure (SMILES): COc1ccc(OC)c(CCNC(=O)c2sc3nc4n(c(=O)c3c2C)CCC4)c1
- cell number change: -54.6%
- AC50 [1]: 10.3 µM [falling, partial curve, poor fit]
- AC50 [2]: 1.64 µM [falling, partial curve]

Structure (SMILES): COc1ccc(OCC(=O)N/N=C(\C)CC(=O)Nc2ccc(NC(C)=O)cc2)cc1
- cell number change: -13.9%
- AC50 [2]: 29.1 µM [falling, single point]

Structure (SMILES): COc1ccccc1C(=O)NCCc1nc2ccccc2n1C
- cell number change: 3.47%
- AC50 [2]: 0.092 µM [falling, full curve, poor fit]

Structure (SMILES): COc1cc(C(=O)NCC2(c3ccccc3)CCCC2)ccc1OC(C)C
- cell number change: -8.51%

Structure (SMILES): COc1ccccc1OCCC(=O)OCC(=O)NC(=O)NC(C)(C)C
- cell number change: -0.788%
- AC50 [2]: 1.03 µM [rising, full curve, poor fit]

Structure (SMILES): Cc1ccc(S(=O)(=O)N2CCCC(CCC(=O)NCc3ccccc3F)C2)s1 (centres undefined)
- cell number change: -8.12%
- AC50 [2]: 16.4 µM [falling, single point]

Structure (SMILES): NC(=O)CC(NC(=O)Cc1ccc(Cl)cc1)c1ccc(N2CCN(c3ccccn3)CC2)c([N+](=O)[O-])c1 (centres undefined)
- cell number change: 8.68%
- AC50 [2]: 0.461 µM [falling, single point]

Structure (SMILES): Cc1ccc(CNC(=O)CSc2c3c(nc4cc(Cl)ccc24)CCCC3)o1
- AC50 [1]: 0.461 µM [rising, full curve]

Structure (SMILES): COc1ccc(NS(=O)(=O)c2c(C(=O)N3CCCCCC3)c(C)n(C)c2C)cc1
- cell number change: -18.4%
- AC50 [2]: 0.231 µM [falling, full curve, poor fit]

Structure (SMILES): CCC(NC(=O)c1ccccc1NC(=O)C(C)(C)C)C(=O)N1CCCC1 (centres undefined)
- cell number change: 19.1%

Structure (SMILES): CCn1nc(C)c(/C=N/NC(=O)c2ccc3c(c2)c(C)c(C)n3Cc2ccccc2)c1C
- cell number change: 78.2%
- AC50 [1]: 10.3 µM [rising, partial curve, poor fit]
- AC50 [2]: 0.116 µM [rising, full curve, poor fit]

Structure (SMILES): Cc1ccc(OC(=O)Nc2ccccc2)cc1
- cell number change: -2.22%

Structure (SMILES): COc1cc(C(=O)NNC(=S)Nc2ccc(S(N)(=O)=O)cc2)cc(OC)c1OC
- cell number change: 18.5%
- AC50 [2]: 2.91 µM [rising, partial curve, poor fit]

Structure (SMILES): Cc1ccc(/C=N/Nc2ncnc3nc[nH]c23)cc1
- cell number change: -9%
- AC50 [2]: 0.461 µM [rising, partial curve, poor fit]

Structure (SMILES): CCc1sc(C(=O)N2CCN(c3ccc(F)cc3)CC2)cc1C
- AC50 [2]: 3.66 µM [rising, partial curve]

Structure (SMILES): O=C(C1Cc2ccccc2CN1C(=O)c1ccco1)N1CCN(c2ccccc2)CC1 (centres undefined)
- cell number change: -5.89%
- AC50 [2]: 6.51 µM [rising, full curve, poor fit]

Structure (SMILES): Cc1csc(NC(=O)CCc2ccc(S(=O)(=O)N3CCOCC3)cc2)n1
- AC50 [1]: 2.59 µM [rising, partial curve]
- AC50 [2]: 6.51 µM [rising, single point]

Structure (SMILES): CC(C)CC(=O)N1CCC(N(CCc2ccccc2)Cc2ccccc2)CC1
- cell number change: -25.1%
- AC50 [2]: 0.058 µM [falling, full curve, poor fit]

Structure (SMILES): CCOC(=O)C1(CCc2ccccc2)CCN(Cc2cccc3nccnc23)CC1
- cell number change: -23%
- AC50 [2]: 20.6 µM [falling, single point]

Structure (SMILES): N#C/C(=C(/O)CCCl)c1ccccn1
- cell number change: -44%
- AC50 [1]: 29.1 µM [falling, single point]
- AC50 [2]: 14.6 µM [falling, partial curve]

Structure (SMILES): Cn1nnnc1SCCNCc1ccccc1OCc1ccc(F)cc1
- cell number change: 32.1%
- AC50 [1]: 5.17 µM [rising, full curve, poor fit]

Structure (SMILES): O=C(c1ccccc1)C(Cn1cncn1)C(Sc1ccccc1)c1ccccc1 (centres undefined)
- cell number change: -7.05%
- AC50 [2]: 0.731 µM [rising, full curve]

Structure (SMILES): COCCn1c(C)cc(/C=C2/NC(=O)N(c3ccc(Cl)cc3)C2=O)c1C
- cell number change: 20.4%
- AC50 [2]: 5.8 µM [rising, single point]

Structure (SMILES): COc1cccc(COC(=O)C2CCN(C(=O)c3ccccc3C)CC2)c1OC
- cell number change: 45%
- AC50 [1]: 29.1 µM [rising, single point]
- AC50 [2]: 32.6 µM [rising, partial curve]

Structure (SMILES): COc1ccc(CCN(C)C(=O)CSc2nc3ncc(Cl)cc3[nH]2)cc1OC
- AC50 [2]: 0.116 µM [rising, partial curve, poor fit]

Structure (SMILES): Cc1ccc(Nc2nnc(-c3ccc(N4CCOCC4)c([N+](=O)[O-])c3)c3ccccc23)cc1
- cell number change: -39.2%
- AC50 [1]: 0.326 µM [falling, partial curve, poor fit]
- AC50 [2]: 25.9 µM [falling, single point]

Structure (SMILES): COc1cccc(/C=C/C(=O)NNC(=O)CCN2CCN(Cc3ccccc3)CC2)c1
- cell number change: 14.2%
- AC50 [2]: 23.1 µM [rising, single point]

Structure (SMILES): CC(=O)C1=C(C)N(Cc2ccccc2)C(=O)N[C@H]1CCc1ccccc1
- cell number change: 14.3%
- AC50 [1]: 0.82 µM [falling, full curve, poor fit]
- AC50 [2]: 29.1 µM [rising, single point]

Structure (SMILES): Cn1c(=O)[nH]c(=O)c2c1nc(Br)n2CC(O)COc1ccc(Cl)cc1 (centres undefined)
- cell number change: 10.8%
- AC50 [1]: 0.00461 µM [rising, full curve, poor fit]

Structure (SMILES): O=c1oc2ccccc2cc1-c1csc(Nc2nc3c(F)cccc3s2)n1
- cell number change: 16.8%
- AC50 [2]: 20.6 µM [rising, single point]

Structure (SMILES): COc1ccccc1/C=N/NC(=O)c1cccc(OC(F)(F)C(F)F)c1
- cell number change: -19.4%
- AC50 [1]: 3.26 µM [rising, single point]
- AC50 [2]: 4.11 µM [rising, partial curve, poor fit]

Structure (SMILES): COc1ccc(/C=C2\SC(=O)N(CCc3nnc(N)s3)C2=O)cc1
- cell number change: 17.5%
- AC50 [2]: 0.461 µM [rising, full curve, poor fit]

Structure (SMILES): Oc1ccc(-c2nccc(-c3ccc(F)cc3)n2)cc1
- cell number change: -17.5%
- AC50 [2]: 29.1 µM [falling, single point]

Structure (SMILES): COc1ccc(C(C#N)c2ccc(=O)[nH]n2)cc1 (centres undefined)
- cell number change: 9.55%
- AC50 [2]: 0.092 µM [rising, full curve, poor fit]

Structure (SMILES): O=C(CSc1ccccc1)NCCc1ccccc1
- cell number change: 0.647%
- AC50 [1]: 5.8 µM [rising, partial curve]

Structure (SMILES): O=C(COc1ccc(S(=O)(=O)N2CCOCC2)cc1Cl)NCC1CCCO1 (centres undefined)
- cell number change: 16%

Structure (SMILES): O=C(Nc1ccc2c(c1)OCO2)c1noc2c1CCCCC2
- cell number change: -7.43%
- AC50 [2]: 16.4 µM [rising, single point]

Structure (SMILES): CSc1ccccc1NC(=O)c1cccs1
- cell number change: -31.5%
- AC50 [1]: 32.6 µM [falling, single point]
- AC50 [2]: 20.6 µM [falling, single point]

Structure (SMILES): COC(=O)C1C(=O)C2=C(CC1C)NC(C)=C(C(=O)OC1CCCC1)C2c1ccc(N(C)C)cc1 (centres undefined)
- cell number change: -34.9%
- AC50 [1]: 9.2 µM [falling, partial curve]

Structure (SMILES): Cc1cccc2c(N=Nc3ccc(S(=O)(=O)Nc4cccc(Cl)c4)cc3[N+](=O)[O-])c(O)[nH]c12
- cell number change: 0.955%
- AC50 [2]: 29.1 µM [falling, single point]

Structure (SMILES): CSc1cccc(N2CC(C(=O)Nc3cccc(S(=O)(=O)N4CCCC4)c3)CC2=O)c1 (centres undefined)
- AC50 [1]: 6.51 µM [rising, single point]

Structure (SMILES): CC(=O)CSc1nnc(-c2ccncc2)n1C
- cell number change: -103%
- AC50 [1]: 7.31 µM [falling, partial curve]
- AC50 [2]: 18.4 µM [falling, partial curve]

Structure (SMILES): COc1ccc(CC(=O)Nc2sc3c(c2C(N)=O)CCCC3)cc1OC
- cell number change: 4.17%

Structure (SMILES): COC(=O)c1cccc(N(C(=O)c2ccco2)C(C(=O)NC2CCCC2)c2ccc(N3CCOCC3)cc2)c1 (centres undefined)
- cell number change: 15.8%
- AC50 [1]: 0.259 µM [rising, partial curve, poor fit]

Structure (SMILES): O=C(COC(=O)Cc1cccc(C(F)(F)F)c1)NC1CC1
- AC50 [1]: 0.651 µM [rising, full curve, poor fit]

Structure (SMILES): O=C(NCc1ccc(F)cc1)c1cccc2c1C(=O)N(Cc1cccnc1)C2
- cell number change: -34.5%
- AC50 [1]: 8.2 µM [falling, partial curve]
- AC50 [2]: 29.1 µM [falling, single point]

Structure (SMILES): COC(=O)Cn1cc(C(=O)OC)c2ccccc21
- AC50 [1]: 0.206 µM [falling, full curve, poor fit]
- AC50 [2]: 23.1 µM [falling, partial curve]

Structure (SMILES): CCCN(Cc1ccccc1)C(=S)Nc1ccc(OCC)cc1
- cell number change: 60.2%
- AC50 [1]: 8.2 µM [rising, partial curve]
- AC50 [2]: 16.4 µM [rising, partial curve]

Structure (SMILES): CNc1ccccc1C(C)(C)c1cn(-c2ccc([N+](=O)[O-])cc2)nn1
- cell number change: -16.5%
- AC50 [2]: 3.66 µM [falling, single point]
